Results on one compound are retold here after PMC3907542 (PLoS ONE, 2014).

One data set can be described thus: in vivo. The note with it: Sprague Dawley, rat, iv, 2 mg/kg, rats; for AUC(0-inf): AUC0–∞, nifedipine 2 mg/kg i.v.; for Cmax: C max, total nifedipine 2 mg/kg i.v., n = 12.
The conditions of data set [1]: for V: nifedipine 2 mg/kg i.v.
The subject of the next data set is rat plasma proteins. Put plainly: Plasma protein binding of nifedipine in vitro with or without baicalin (ultrafiltration). Type of data set: in vitro ADME. The note with it: start of the increase with increasing baicalin (0 to 2000 mg/L).
The test system of another data set is plasma proteins. The conditions noted are these: in vivo, nifedipine and saline.
Setting [2] is: after baicalin 0.225 g/kg vs control, rats.

SMILES strings stand for the structures. Read-outs that look alike come from different tables or passages of the source.

On to `COC(=O)C1=C(C)NC(C)=C(C(=O)OC)C1c1ccccc1[N+](=O)[O-]` [nifedipine], for which the results for the AUC(0-inf) in the data set “in vivo” (after baicalin 0.225 g/kg i.v.), in “in vivo” (after baicalin […] i.v.) and in the data set “in vivo” (control (saline)) were 6580 ± 1290 ng·h/mL, 4060 ± 670 ng·h/mL and 11100 ± 1170 ng·h/mL, respectively. Also, the Cmax (commonly the peak of the concentration-time curve) in the data set “in vivo” (after baicalin 0.225 g/kg i.v.) turned out to be 8420 ± 2280 ng/mL; in the data set “in vivo” (after baicalin […] i.v.), 4970 ± 1750 ng/mL; in “in vivo” (control (saline)) it was 14100 ± 2700 ng/mL. For the same compound, the “decrease of AUC0–∞” value in data set [1] (setting [2]) is recorded as 41%±8%. The “decrease of C max of total nifedipine” value in data set [1] (setting [2]) is recorded as 40%±14%. Besides, the “increase of apparent volume of distribution (Vd)” value in data set [1] (setting [2]) was 85% ±43%; in data set [1] (after baicalin […] vs control, rats), 224%±231%. The V in data set [1] (after baicalin 0.225 g/kg i.v., rats) was 0.26 ± 0.06 L/kg; in data set [1] (after baicalin […] i.v., rats), 0.46±0.07 ^△ L/kg; in data set [1] (control (saline), rats), 0.14 ± 0.03 L/kg. Further, the “decrease of C max, individual rat” value was found to be 12.11% in data set [1] (rat 7, baicalin 0.225 g/kg) and 57.91% in data set [1] (rat 8, baicalin 0.225 g/kg). Further, the “unbound nifedipine (%)” value in the data set with rat plasma proteins is listed as 4.00%. Moreover, in the data set with plasma proteins, the “mean unbound nifedipine (%)” value stood at 3.92%.
